The labels stand for the following.
T1: biotinylated IRF4 (IRF4-Avi-tag fusion protein, interferon regulatory factor 4) (mouse) (UniProt Q64287)
T1 sequence (chain, biotin on the Avi-tag (BirA-mediated in vivo biotinylation)): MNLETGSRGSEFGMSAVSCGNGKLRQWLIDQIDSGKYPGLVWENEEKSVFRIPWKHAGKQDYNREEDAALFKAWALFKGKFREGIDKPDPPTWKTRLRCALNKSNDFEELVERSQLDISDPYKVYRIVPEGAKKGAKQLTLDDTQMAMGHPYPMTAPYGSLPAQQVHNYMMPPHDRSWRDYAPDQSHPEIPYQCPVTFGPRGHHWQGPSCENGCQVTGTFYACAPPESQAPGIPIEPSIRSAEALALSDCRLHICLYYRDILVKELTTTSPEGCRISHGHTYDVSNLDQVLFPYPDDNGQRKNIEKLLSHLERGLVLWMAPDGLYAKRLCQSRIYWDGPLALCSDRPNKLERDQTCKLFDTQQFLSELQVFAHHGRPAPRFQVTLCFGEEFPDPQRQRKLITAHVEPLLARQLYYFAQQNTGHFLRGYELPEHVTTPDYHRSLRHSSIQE

B1: TBX21 (protein, UniProt Q9JKD8 1-530)
chain: MGIVEPGCGDMLTGTEPMPSDEGRGPGADQQHRFFYPEPGAQDPTDRRAGSSLGTPYSGGALVPAAPGRFLGSFAYPPRAQVAGFPGPGEFFPPPAGAEGYPPVDGYPAPDPRAGLYPGPREDYALPAGLEVSGKLRVALSNHLLWSKFNQHQTEMIITKQGRRMFPFLSFTVAGLEPTSHYRMFVDVVLVDQHHWRYQSGKWVQCGKAEGSMPGNRLYVHPDSPNTGAHWMRQEVSFGKLKLTNNKGASNNVTQMIVLQSLHKYQPRLHIVEVNDGEPEAACSASNTHVFTFQETQFIAVTAYQNAEITQLKIDNNPFAKGFRENFESMYASVDTSVPSPPGPNCQLLGGDPFSPLLSNQYPVPSRFYPDLPGQPKDMISQPYWLGTPREHSYEAEFRAVSMKPTLLPSAPGPTVPYYRGQDVLAPGAGWPVAPQYPPKMSPAGWFRPMRTLPMDPGLGSSEEQGSSPSLWPEVTSLQPEPSDSGLGEGDTKRRRISPYPSSGDSSSPAGAPSPFDKETEGQFYNYFPN
B2: Fosl2 (protein, UniProt P47930 1-326)
chain: MYQDYPGNFDTSSRGSSGSPAHAESYSSGGGGQQKFRVDMPGSGSAFIPTINAITTSQDLQWMVQPTVITSMSNPYPRSHPYSPLPGLASVPGHMALPRPGVIKTIGTTVGRRRRDEQLSPEEEEKRRIRRERNKLAAAKCRNRRRELTEKLQAETEELEEEKSGLQKEIAELQKEKEKLEFMLVAHGPVCKISPEERRSPPTSGLQSLRGTGSAVGPVVVKQEPPEEDSPSSSAGMDKTQRSVIKPISIAGGGFYGEEPLHTPIVVTSTPAITPGTSNLVFTYPNVLEQESPSSPSESCSKAHRRSSSSGDQSSDSLNSPTLLAL
B3: BCL-3 (protein, UniProt Q9Z2F6 1-448)
chain: MPRCPAGAMDEGPVDLRTRPKGTPGAALPLRKRPLRPASPEPATTRSPAGPLDALRSGCDVPVVPGPPHCVARPEALYYQGPLMPIYSTPTMAPHFPLLNLPTHPYSMICPMEHPLSADIAMATRVDEDGDTPLHIAVVQNNIAAVYRILSLFKLGSREVDVHNNLRQTPLHLAVITTLPDMVRLLVTAGASPMALDRHGQTAIHLACEHRSPSCLQALLDSATSGSVDLEVRNYEGLTALHVAVNTGCQEAVLLLLERGADIDAVDIKSGRSPLIHAVENNSLNMVQLLLLHGANVNAQMYSGSSALHSASGRGLLPLVRTLVRSGADSGLKNCHNDTPLMVARSRRVIDILRGKASRAASGSQPEPSPDQSATNSPESSSRLSSNGLQSSPSSSPSLSPPKDAPGFPATPQNFFLPTTSTPAFLPFPGVLRGPGRPVPPSPAPGSS
B4: ARID5A (protein, UniProt Q3U108 1-590)
chain: MAAPPAKGNTEQSEEGDLPQLPVSPKPDDEQSRSQSPTQLQDSPEAGGEQEEEQAFLVSLYKFMKERHTPIERVPHLGFKQINLWKIYKAVEKLGAYELVTGRRLWKNVYDELGGSPGSTSAATCTRRHYERLVLPYVRHLKGEDDKPLPPTKPRKQYKMAKELRGDDGTTEKLKKAKDSEERRVEQTTPGKTKSDATGQTQLPCQGSSRDSTEQLGPVSGPSPPLTGASSCPEAYKRLLSSFYCKGAHGIMSPLAKKKLLAQVSKAEALQCQEEGCRHGARSPNKDIQDSPQNLRGPAENSEHQLTPREGLQAPGGSTRMEAQVGPCPTAPMFSGCFHAYPTEVLKPVSQHPRDFFSGLKDRVLLGPPGKEEGPTTKESHLVWGGDANHPSAFHKGSTRKRSFYPKPKACWVSPMAKVPTERPGAPSPHPSSPGLGSKRGLEEEGFAHGGKKLRAVSPFLKEVDSKETGGKPAAPGLAVSCLLGPTPGPTPPEAYRGTMLRCPLNFTGSADPLKGQASLPFSPLVIPAFPAHLLATTGSSPMAASLMHFPPTPYDAVLRNRLGPASSAWHMPPVTTYAAPHFFHLNTKL
B5: ZN609 (protein, UniProt Q8BZ47 1-1413)
chain: MSLSSGACGGKGVDANPVETYDSGDEWDIGVGNLIIDLDADLEKDQQKLEMSGSKEVGIPAPNAVATLPDNIKFVTPVPGPQGKEGKSKSKRSKSGKDASKPTPGTSLFSPSEGAASKKEVQGRAGDGASAGGLVAAVAPKGSEKAAKASRSVAGSKKEKENSSSKGKKERSEGVGTCSEKDPGVLQPVPLGGRGSQYDGSAGMDTGTVEPLGSIAIEPGAALNPLGTKPEPEEGENECRPLKKVKSEKMESPVSTPAVLPLHLLVPVVNNDISSPCEQIMVRTRSVGVNTCDVALATEPECLGPCEPGTSVNLEGIVWQETEDGMLVVNVTWRNKTYVGTLLDCTRHDWAPPRFCDSPTSDLEMRNGRGRGKRMRPSSNTPVSEAAAASDSKGTSSSSKTRAGANSKGRRGSQNSSEHRPPASSTSEDVKASPSSANKRKSKPLSDMELNSSSEDSKGSKRVRTNSMGSATGPLPGTKVEPTLVDRNCPSPVLIDCPHPNCNKKYKHINGLKYHQAHAHTDDDSKPEADGDSEYGEEPALHADLSCNGAPVPQKGSLSPARSATPKVRLVEPHSPSPSSKFSTKGLCKKKLSGEGDTDPGALSNDGSDDGPSVMDETSNDAFDSLERKCMEKEKCKKPSSLKSEKIPSKSLKSARPIAPAIPPQQIYTFQTATFTAASPGSSSGLTTTVVQAMPNSPQLKPIQPKPTVMGEPFTVNPALTPAKDKKKKDKKKKDSSKELESPLTPGKVCRAEEGKSPFRDAAGDGIKVESLLNGSSESHQSRLASIKAEADKIYSFTDNAPSPSIGGSSRLDSTTPTQPLTPLHVVTQNGAEASSVKTNSPAYSDISDAGEDGEGKVDSAKSKDPEQLVKEGAKKTLFPPQPQSKDSPYYQGFESYYSPGYAQSSPGTLTSSSQAGMEGQPLKTKKDEEPESVEGKVKNDVCEEKKPELSNSSQQPSVIQQRPNMYMQSLYYNQYAYVPPYGYSDQSYHSHLLSTNTAYRQQYEEQQKRQSLEQQQQQQRGLDKKTEMGLKEREASLKEEWKQKPSIPPTLTKAPSLTDLVKSGPGKAKEPGTDPAKSVIIPKLDDSSKLPSQPPEGLKGKLGEASHLGKEASEAKTGTECGRQAEVDPILWYRQETESRMWTYVYPAKYSDIKSEDDRWKEERDRKLKEDRSRSKDSVPKEDGKESTSSDCKLPPSEESRLGSKEPRPSVHVPVSSPLTQHQSYIPYMHGYSYSQSYDPNHPSYRGMPAVMMQNYPGSYLPSSYSFSPYGSKVSGGEDADKARASPSVSCKASSESKALDILQQHASHYKSKSPTISDKNSQERDRGGCGVVGGGGSCGSVAGAGGTDRSADRPRTSPSQRLMSTHHHHHHLGYSLLPAQYNLPYAAGLSSTAIVASQQGSTPSLYPPPRR
B6: SATB1 (protein, UniProt Q60611 1-764)
chain: MDHLNEATQGKEHSEMSNNVSDPKGPPAKIARLEQNGSPLGRGRLGSTGGKMQGVPLKHSGHLMKTNLRKGTMLPVFCVVEHYENAIEYDCKEEHAEFVLVRKDMLFNQLIEMALLSLGYSHSSAAQAKGLIQVGKWNPVPLSYVTDAPDATVADMLQDVYHVVTLKIQLHSCPKLEDLPPEQWSHTTVRNALKDLLKDMNQSSLAKECPLSQSMISSIVNSTYYANVSAAKCQEFGRWYKHFKKTKDMMVEMDSLSELSQQGANHVNFGQQPVPGNTAEQPPSPAQLSHGSQPSVRTPLPNLHPGLVSTPISPQLVNQQLVMAQLLNQQYAVNRLLAQQSLNQQYLNHPPPVSRSMNKPLEQQVSTNTEVSSEIYQWVRDELKRAGISQAVFARVAFNRTQGLLSEILRKEEDPKTASQSLLVNLRAMQNFLQLPEAERDRIYQDERERSLNAASAMGPAPLLSTPPSRPPQVKTATLATERNGKPENNTMNINASIYDEIQQEMKRAKVSQALFAKVAATKSQGWLCELLRWKEDPSPENRTLWENLSMIRRFLSLPQPERDAIYEQESNAVHHHGDRPPHIIHVPAEQIQQQQQQQQQQQQQQQPPPPPPQPQPQPQAGPRLPPRQPTVASSAESDEENRQKTRPRTKISVEALGILQSFIQDVGLYPDEEAIQTLSAQLDLPKYTIIKFFQNQRYYLKHHGKLKDNSGLEVDVAEYKDEELLKDLEESVQDKNANTLFSVKLEEELSVEGSTDVNADLKD
B7: CDK7 (enzyme, UniProt Q03147 1-346)
chain: MAVDVKSRAKRYEKLDFLGEGQFATVYKARDKNTNQIVAIKKIKLGHRSEAKDGINRTALREIKLLQELSHPNIIGLLDAFGHKSNISLVFDFMETDLEVIIKDNSLVLTPSHIKAYMLMTLQGLEYLHQHWILHRDLKPNNLLLDENGVLKLADFGLAKSFGSPNRAYTHQVVTRWYRAPELLFGARMYGVGVDMWAVGCILAELLLRVPFLPGDSDLDQLTRIFETLGTPTEEQWPDMCSLPDYVTFKSFPGVPLQHIFIAAGDDLLELIQGLFLFNPCTRTTASQALKTKYFSNRPGPTPGCQLPRPNCPVEALKEPANPTVATKRKRAEALEQGILPKKLIF
B8: hyaluronan-mediated motility receptor (HMMR) (protein, UniProt Q00547 1-794)
chain: MSFPKAPLKRFNDPSGCAPSPGAYDVKTSEATKGPVSFQKSQRFKNQRESQQNLNIDKDTTLLASAKKAKKSVSKKDSQKNDKDVKRLEKEIRALLQERGTQDKRIQDMESELEKTEAKLNAAVREKTSLSASNASLEKRLTELTRANELLKAKFSEDGHQKNMRALSLELMKLRNKRETKMRSMMVKQEGMELKLQATQKDLTESKGKIVQLEGKLVSIEKEKIDEKCETEKLLEYIQEISCASDQVEKCKVDIAQLEEDLKEKDREILSLKQSLEENITFSKQIEDLTVKCQLLETERDNLVSKDRERAETLSAEMQILTERLALERQEYEKLQQKELQSQSLLQQEKELSARLQQQLCSFQEEMTSEKNVFKEELKLALAELDAVQQKEEQSERLVKQLEEETKSTAEQLTRLDNLLREKEVELEKHIAAHAQAILIAQEKYNDTAQSLRDVTAQLESVQEKYNDTAQSLRDVTAQLESEQEKYNDTAQSLRDVTAQLESEQEKYNDTAQSLRDVTAQLESVQEKYNDTAQSLRDVTAQLESYKSSTLKEIEDLKLENLTLQEKVAMAEKSVEDVQQQILTAESTNQEYARMVQDLQNRSTLKEEEIKEITSSFLEKITDLKNQLRQQDEDFRKQLEEKGKRTAEKENVMTELTMEINKWRLLYEELYEKTKPFQQQLDAFEAEKQALLNEHGATQEQLNKIRDSYAQLLGHQNLKQKIKHVVKLKDENSQLKSEVSKLRSQLVKRKQNELRLQGELDKALGIRHFDPSKAFCHASKENFTPLKEGNPNCC

No constants are given. Whether binding was seen depends on the method and setting. In cells and extracts the contact can be indirect. These calls come from enrichment with a bait or labelling near it, and not all partners need be listed. Sequences can lack the tags named with a protein.

In the assay the target is T1, biotinylated IRF4 (IRF4-Avi-tag fusion protein, interferon regulatory factor 4) (mouse). Description: affinity purification with mass spectrometry.
Consider B1, for which the binding entry is recorded as “binds”.

B2: the binding result is on record as “binds”.

Consider B3, for which the binding result is “binds”.

On to B4, for which the binding result is “binds”.

B5: the binding result is on record as “binds”.

For B6, the binding entry is “binds”.

With B7, the binding result is on record as “binds”.

For the molecule B8, the binding entry is on record as “binds”.

Values taken from publication doi:10.1101/2023.09.14.557376.
